PubChem BioAssay AID504764 – Drosophila RNAi Screening Center | 2011

Assay: 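Genome-wide screen for regulators of Notch-driven gene expression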 (primary screen)
Cell system: Drosophila Kc167 cells
Knock-down reagent: long dsRNA against Drosophila genes
Duration: about 5 days (4 days dsRNA, then 24 h after transfection)
Conditions: transfection of constitutively active membrane-tethered Notch lacking the extracellular domain, read 24 h later
Measurement: 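Light from a Notch-responsive E(spl)m3 luciferase reporter under active Notch, with control-promoter and no-Notch reporter wells to normalise; raw counts from paired wells a and b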
Scale: induced reporter light, run 1, well a and induced reporter light, run 1, well b: higher = more light from the Notch target reporter with active Notch; control promoter light, run 1, well a and control promoter light, run 1, well b: higher = more light from the viral control promoter (cell number, transfection, viability); uninduced reporter light, run 1, well a: higher = more light from the Notch target reporter without active Notch
Call rule: 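Wells with low control signal or poorly matching duplicates excluded; duplicates averaged; per source plate, z beyond ±2 for induced/control log2 ratio or beyond ±1.8 for induced/uninduced marks a hit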
Calls: active = modifier hit (raised or lowered Notch signal); inactive = not a hit
In all, the deposit lists about 22,000 reagents; this is an unselected part of those with a known target gene and a result. In the full data, 403 (1.9%) are marked active. 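Unnormalised raw counts per well; ratio z-scores behind the hit calls and whether each hit raises or lowers signal are not deposited.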 The record does not give: the amount of reagent.

Arv1 [DRSC11491] gave induced reporter light, run 1, well a = 2.06e5; induced reporter light, run 1, well b = 2.34e5; control promoter light, run 1, well a = 2.74e5; control promoter light, run 1, well b = 2.83e5; uninduced reporter light, run 1, well a = 21055; inactive. nAChRalpha6 [DRSC01096] scored induced reporter light, run 1, well a = 1.08e5; induced reporter light, run 1, well b = 1.19e5; control promoter light, run 1, well a = 1.37e5; control promoter light, run 1, well b = 1.04e5; uninduced reporter light, run 1, well a = 10742; inactive. Knock-down of nAChRalpha6 [DRSC02738] resulted in: induced reporter light, run 1, well a = 1.99e5; induced reporter light, run 1, well b = 2.26e5; control promoter light, run 1, well a = 2.08e5; control promoter light, run 1, well b = 1.71e5; uninduced reporter light, run 1, well a = 15730; inactive. CG15252 [DRSC17981] showed induced reporter light, run 1, well a = 1.00e5; induced reporter light, run 1, well b = 96330; control promoter light, run 1, well a = 1.65e5; control promoter light, run 1, well b = 1.54e5; uninduced reporter light, run 1, well a = 8390; inactive.

An excerpt from above, showing only “uninduced reporter light, run 1, well a”.
nAChRalpha6 [DRSC01096]	10742
nAChRalpha6 [DRSC02738]	15730

The list goes on:
After knock-down of Vha100-3 [DRSC05760] the results were induced reporter light, run 1, well a = 17120; induced reporter light, run 1, well b = 16500; control promoter light, run 1, well a = 9610; control promoter light, run 1, well b = 10865; uninduced reporter light, run 1, well a = 3315; inactive. tub [DRSC12389] showed induced reporter light, run 1, well a = 92335; induced reporter light, run 1, well b = 1.12e5; control promoter light, run 1, well a = 65435; control promoter light, run 1, well b = 86405; uninduced reporter light, run 1, well a = 8335; inactive. After knock-down of D2hgdh [DRSC18577], the record shows induced reporter light, run 1, well a = 1.59e5; induced reporter light, run 1, well b = 1.67e5; control promoter light, run 1, well a = 2.14e5; control promoter light, run 1, well b = 2.28e5; uninduced reporter light, run 1, well a = 11150; inactive. With knock-down of mnb [DRSC20058], the screen gave induced reporter light, run 1, well a = 19905; induced reporter light, run 1, well b = 16170; control promoter light, run 1, well a = 17645; control promoter light, run 1, well b = 14685; uninduced reporter light, run 1, well a = 4388; inactive. With knock-down of mnb [DRSC20353], the screen gave induced reporter light, run 1, well a = 59805; induced reporter light, run 1, well b = 58660; control promoter light, run 1, well a = 69430; control promoter light, run 1, well b = 65365; uninduced reporter light, run 1, well a = 7060; inactive. After knock-down of Dyro [DRSC10598], the screen gave induced reporter light, run 1, well a = 56050; induced reporter light, run 1, well b = 45800; control promoter light, run 1, well a = 36030; control promoter light, run 1, well b = 46990; uninduced reporter light, run 1, well a = 5250; inactive.

With knock-down of Syx8 [DRSC10402] the results were induced reporter light, run 1, well a = 1.97e5; induced reporter light, run 1, well b = 1.57e5; control promoter light, run 1, well a = 1.96e5; control promoter light, run 1, well b = 1.70e5; uninduced reporter light, run 1, well a = 11578; inactive. With knock-down of Syx8 [DRSC22498], the record shows inactive.
